Experimental data from publication PMC10760242.
Results are given in words; binding and its absence hold for the method and conditions named. In cells and extracts the contact can be indirect. Some binding calls cover weakened binding; strength is not graded here. Blank lines part the entries; values can stand above or below the binder they belong to.

Columns and labels:
[1] = target: T1, mCherry-labeled Keratin 14 (K14), P02533; assay: co-IP; IP with anti-mCherry antibody from lysates of UM-UC5 and UM-UC14 cells expressing K14-mCherry, immunoblot; control cells lacking K14-mCherry; lysates also treated with TCEP (interaction reduced); conditions: remark: other sources report otherwise
T1 chain: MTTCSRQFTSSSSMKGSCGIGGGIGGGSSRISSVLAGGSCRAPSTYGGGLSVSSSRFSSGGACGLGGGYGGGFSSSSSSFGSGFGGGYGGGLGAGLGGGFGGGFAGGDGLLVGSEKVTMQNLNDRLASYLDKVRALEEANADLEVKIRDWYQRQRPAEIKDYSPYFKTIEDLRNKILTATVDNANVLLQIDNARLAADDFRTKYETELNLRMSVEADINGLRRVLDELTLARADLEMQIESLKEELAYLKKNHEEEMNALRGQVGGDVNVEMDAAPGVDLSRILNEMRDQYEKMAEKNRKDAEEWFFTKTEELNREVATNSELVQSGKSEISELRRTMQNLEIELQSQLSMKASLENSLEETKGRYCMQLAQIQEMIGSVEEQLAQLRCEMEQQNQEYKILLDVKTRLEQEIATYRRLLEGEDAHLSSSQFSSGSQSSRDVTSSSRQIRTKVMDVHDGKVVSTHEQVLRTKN

[2] = target: mCherry-labeled Keratin 14 (K14) (UniProt P02533); assay: as above

binding [1]: no binding
B1: FAM83H, Q6ZRV2 1-1179 (protein)
chain: MARRSQSSSQGDNPLAPGYLPPHYKEYYRLAVDALAEGGSEAYSRFLATEGAPDFLCPEELEHVSRHLRPPQYVTREPPEGSLLDVDMDGSSGTYWPVNSDQAVPELDLGWPLTFGFQGTEVTTLVQPPPPDSPSIKDEARRMIRSAQQVVAVVMDMFTDVDLLSEVLEAAARRVPVYILLDEMNAQHFLDMADKCRVNLQHVDFLRVRTVAGPTYYCRTGKSFKGHVKEKFLLVDCAVVMSGSYSFMWSFEKIHRSLAHVFQGELVSSFDEEFRILFAQSEPLVPSAAALARMDAYALAPYAGAGPLVGVPGVGAPTPFSFPKRAHLLFPPPREEGLGFPSFLDPDRHFLSAFRREEPPRMPGGALEPHAGLRPLSRRLEAEAGPAGELAGARGFFQARHLEMDAFKRHSFATEGAGAVENFAAARQVSRQTFLSHGDDFRFQTSHFHRDQLYQQQYQWDPQLTPARPQGLFEKLRGGRAGFADPDDFTLGAGPRFPELGPDGHQRLDYVPSSASREVRHGSDPAFAPGPRGLEPSGAPRPNLTQRFPCQAAARPGPDPAPEAEPERRGGPEGRAGLRRWRLASYLSGCHGEDGGDDGLPAPMEAEAYEDDVLAPGGRAPAGDLLPSAFRVPAAFPTKVPVPGPGSGGNGPEREGPEEPGLAKQDSFRSRLNPLVQRSSRLRSSLIFSTSQAEGAAGAAAATEKVQLLHKEQTVSETLGPGGEAVRSAASTKVAELLEKYKGPARDPGGGAGAITVASHSKAVVSQAWREEVAAPGAVGGERRSLESCLLDLRDSFAQQLHQEAERQPGAASLTAAQLLDTLGRSGSDRLPSRFLSAQSHSTSPQGLDSPLPLEGSGAHQVLHNESKGSPTSAYPERKGSPTPGFSTRRGSPTTGFIEQKGSPTSAYPERRGSPVPPVPERRSSPVPPVPERRGSLTLTISGESPKAGPAEEGPSGPMEVLRKGSLRLRQLLSPKGERRMEDEGGFPVPQENGQPESPRRLSLGQGDSTEAATEERGPRARLSSATANALYSSNLRDDTKAILEQISAHGQKHRAVPAPSPGPTHNSPELGRPPAAGVLAPDMSDKDKCSAIFRSDSLGTQGRLSRTLPASAEERDRLLRRMESMRKEKRVYSRFEVFCKKEEASSPGAGEGPAEEGTRDSKVGKFVPKILGTFKSKK

binding [2]: binds
B2: Tripartite Motif-containing protein 29 (TRIM29) (protein, UniProt Q14134 1-588)
chain: MEAADASRSNGSSPEARDARSPSGPSGSLENGTKADGKDAKTTNGHGGEAAEGKSLGSALKPGEGRSALFAGNEWRRPIIQFVESGDDKNSNYFSMDSMEGKRSPYAGLQLGAAKKPPVTFAEKGELRKSIFSESRKPTVSIMEPGETRRNSYPRADTGLFSRSKSGSEEVLCDSCIGNKQKAVKSCLVCQASFCELHLKPHLEGAAFRDHQLLEPIRDFEARKCPVHGKTMELFCQTDQTCICYLCMFQEHKNHSTVTVEEAKAEKETELSLQKEQLQLKIIEIEDEAEKWQKEKDRIKSFTTNEKAILEQNFRDLVRDLEKQKEEVRAALEQREQDAVDQVKVIMDALDERAKVLHEDKQTREQLHSISDSVLFLQEFGALMSNYSLPPPLPTYHVLLEGEGLGQSLGNFKDDLLNVCMRHVEKMCKADLSRNFIERNHMENGGDHRYVNNYTNSFGGEWSAPDTMKRYSMYLTPKGGVRTSYQPSSPGRFTKETTQKNFNNLYGTKGNYTSRVWEYSSSIQNSDNDLPVVQGSSSFSLKGYPSLMRSQSPKAQPQTWKSGKQTMLSHYRPFYVNKGNGIGSNEAP
